Data taken from patent US20250092054A1, “FUSED PYRIDINES FOR CONTROLLING INVERTEBRATE PESTS” (FMC Corporation, priority 2021, published 2025).
Some results were stated once for a whole list of compounds, not compound by compound.

How the values were obtained:
[1] = system: diamondback moth (Plutella xylostella (L.)); assay: Test A: control of diamondback moth, foliar spray on mustard plant; type: in vivo; conditions: mustard plant pre-infested with neonate larvae, assessed after 6 days
[2] = system: Western Flower Thrips (Frankliniellla occidentalis (Pergande)); assay: Test G: control of Western Flower Thrips through contact and/or systemic means; type: in vivo, Frankliniella occidentalis; conditions: Soleil bean plant, thrips adults and nymphs added, assessed after 6 days
[3] = system: fall armyworm (Spodoptera frugiperda (J. E. Smith)); assay: Test B: control of fall armyworm, foliar spray on corn (maize) plant; type: in vivo; conditions: corn plant pre-infested with 1-day-old larvae, assessed after 6 days
[4] = system: potato leafhopper (Empoascafabae (Harris)); assay: Test D: control of potato leafhopper through contact and/or systemic means; type: in vivo; conditions: Soleil bean plant post-infested with adults, assessed after 6 days
Procedure: (§1) Test compounds were formulated using a solution containing 10% acetone, 90% water and 300 ppm Activator 90® non-ionic surfactant (Loveland Products, Loveland, Colorado, USA). The formulated compounds were applied in 1 mL of liquid through an atomizer nozzle positioned 1.27 cm (0.5 inches) above the top of each test unit. Test compounds were sprayed at the rates indicated, and each test was replicated three times.
For evaluating control of potato leafhopper (Empoascafabae (Harris)) through contact and/or systemic means, the test unit consisted of a small open container with a 5-6-day-old Soleil bean plant (primary leaves emerged) inside. White sand was added to the top of the soil, and one of the primary leaves was excised prior to application of the test compound.
Test compounds were formulated and sprayed at 50 and 10 ppm. After spraying of the formulated test compound, the test units were allowed to dry for 1 hour before they were post-infested with 5 potato leafhoppers (18-to-21-day-old adults). A black, screened cap was placed on the top of the test unit, and the test units were held for 6 days in a growth chamber at 20° C. and 70% relative humidity. Each test unit was then visually assessed for insect mortality.

[5] = system: cotton melon aphid (Aphis gossypii (Glover)); assay: Test F: control of cotton melon aphid through contact and/or systemic means; type: in vivo; conditions: sprayed at 50 ppm; pre-infested okra plant; assessed after 6 days
Procedure: as §1
For evaluating control of cotton melon aphid (Aphis gossypii (Glover)) through contact and/or systemic means, the test unit consisted of a small open container with a 5-day-old okra plant inside. This was pre-infested with 30-40 insects on a piece of leaf according to the cut-leaf method, and the soil of the test unit was covered with a layer of sand.
Test compounds were formulated and sprayed at 50 and 10 ppm. After spraying, the test units were maintained in a growth chamber for 6 days at 19° C. and 70% relative humidity. Each test unit was then visually assessed for insect mortality.

Molecule | control efficacy very good to excellent: feeding damage (40% or less feeding damage and/or 100% mortality) ([1]; sprayed at 2 ppm) | control efficacy very good to excellent: feeding damage (40% or less feeding damage and/or 100% mortality) ([1]; sprayed at 0.4 ppm) | control efficacy very good to excellent: plant damage (30% or less plant damage and/or 100% mortality) ([2]; sprayed at 2 ppm) | control efficacy very good to excellent: feeding damage (40% or less feeding damage and/or 100% mortality) ([3]; sprayed at 2 ppm) | mortality ([4]; sprayed at 50 ppm) | mortality [5] | control efficacy very good to excellent: feeding damage (40% or less feeding damage and/or 100% mortality) ([3]; sprayed at 0.4 ppm) | mortality ([4]; sprayed at 10 ppm) | control efficacy very good to excellent: plant damage (30% or less plant damage and/or 100% mortality) ([2]; sprayed at 0.4 ppm)
C[C@@H](NC(=O)c1cnc(C2=NOC(c3cc(Cl)cc(Cl)c3)(C(F)(F)F)C2)c2ccsc12)C(N)=O (some centres unmarked) [Compound 25] | ≤ 40% | – | – | – | – | – | – | – | –
O=C(NCc1ncccn1)c1ncc(C2=NOC(c3cc(Cl)c(F)c(Cl)c3)(C(F)(F)F)C2)c2c1CCC2 (centres unmarked) [Compound 32] | ≤ 40% | – | – | – | – | – | – | – | –
O=C(NC1CC1)c1cnc(C2=NOC(c3cc(Cl)cc(Cl)c3)(C(F)(F)F)C2)c2sccc12 (centres unmarked) [Compound 11, N-cyclopropyl-7-[5-(3,5-dichlorophenyl)-4,5-dihydro-5-(trifluoromethyl)-3-isoxazolyl]thieno[2,3-c]pyridine-4-carboxamide] | ≤ 40% | ≤ 40% | ≤ 30% | ≤ 40% | – | – | – | – | –
O=C(NC1C[S+]([O-])C1)c1cnc(C2=NOC(c3cc(Cl)cc(Cl)c3)(C(F)(F)F)C2)c2ccsc12 (centres unmarked) [Compound 28] | ≤ 40% | ≤ 40% | ≤ 30% | ≤ 40% | – | – | – | – | –
N-cyclopropyl-4-[4,5-dihydro-5-(trifluoromethyl)-5-[3(trifluoro-methyl)phenyl]-3-isoxazolyl]furo[2,3-c]pyridine-7-carboxamide [Compound 9] | ≤ 40% | – | – | – | at least 80% | – | – | – | –
CNC(=O)[C@@H](C)NC(=O)c1cnc(C2=NOC(c3cc(Cl)cc(Cl)c3)(C(F)(F)F)C2)c2ccsc12 (stereo partly drawn) [Compound 24, 4-[5-(3,5-dichlorophenyl)-4,5-dihydro-5-(trifluoromethyl)-3-isoxazolyl]-N-[(1R)-1-methyl-2-(methylamino)-2-oxoethyl]thieno[3,2-c]pyridine-7-carboxamide] | ≤ 40% | ≤ 40% | ≤ 30% | ≤ 40% | – | – | – | – | –
O=C(NCC1CC1)c1ncc(C2=NOC(c3cc(Cl)c(F)c(Cl)c3)(C(F)(F)F)C2)c2c1CCC2 (centres unmarked) [Compound 31] | ≤ 40% | ≤ 40% | – | ≤ 40% | – | at least 80% | – | – | –
O=C(NCC1CC1)c1ncc(C2=NOC(c3cc(Cl)c(F)c(Cl)c3)(C(F)(F)F)C2)c2ccoc12 (centres unmarked) [Compound 14, N-(cyclopropylmethyl)-4-[5-(3,5-dichloro-4-fluorophenyl)-4,5-dihydro-5-(trifluoromethyl)-3-isoxazolyl]furo[2,3-c]pyridine-7-carboxamide] | ≤ 40% | ≤ 40% | ≤ 30% | ≤ 40% | – | – | ≤ 40% | – | –
O=C(NCC1CC1)c1ncc(C2=NOC(c3cccc(C(F)(F)F)c3)(C(F)(F)F)C2)c2ccoc12 (centres unmarked) [Compound 16] | ≤ 40% | ≤ 40% | ≤ 30% | ≤ 40% | at least 80% | – | – | at least 80% | –
NC(=O)c1cnc(C2=NOC(c3cc(Cl)c(F)c(Cl)c3)(C(F)(F)F)C2)c2ccoc12 (centres unmarked) [Compound 4] | ≤ 40% | – | – | – | – | – | – | – | –
O=C(NC1CSC1)c1cnc(C2=NOC(c3cc(Cl)cc(Cl)c3)(C(F)(F)F)C2)c2ccsc12 (centres unmarked) [Compound 27, 4-[5-(3,5-dichlorophenyl)-4,5-dihydro-5-(trifluoromethyl)-3-isoxazolyl]-N-3-thietanylthieno[3,2-c]pyridine-7-carboxamide] | ≤ 40% | – | – | ≤ 40% | – | – | – | – | –
NC(=O)c1cnc(C2=NOC(c3cc(Cl)c(F)c(Cl)c3)(C(F)(F)F)C2)c2c1OCC2 (centres unmarked) [Compound 18] | ≤ 40% | – | – | – | – | – | – | – | –
CNC(=O)[C@@H](C)NC(=O)c1ncc(C2=NOC(c3cc(Cl)c(F)c(Cl)c3)(C(F)(F)F)C2)c2c1CCC2 (stereo partly drawn) [Compound 30, 4-[5-(3,5-dichloro-4-fluorophenyl)-4,5-dihydro-5-(trifluoromethyl)-3-isoxazolyl]-6,7-dihydro-N-[(1R)-1-methyl-2-(methylamino)-2-oxoethyl]-5H-cyclopenta[c]pyridine-1-carboxamide] | ≤ 40% | ≤ 40% | ≤ 30% | ≤ 40% | – | – | ≤ 40% | – | –
O=C(NCC1CC1)c1cnc(C2=NOC(c3cc(Cl)c(F)c(Cl)c3)(C(F)(F)F)C2)c2ccoc12 (centres unmarked) [Compound 2] | ≤ 40% | – | – | – | – | – | – | – | –
O=C(NC1CC1)c1ncc(C2=NOC(c3cc(Cl)c(F)c(Cl)c3)(C(F)(F)F)C2)c2ccoc12 (centres unmarked) [Compound 13, N-cyclopropyl-4-[5-(3,5-dichloro-4-fluorophenyl)-4,5-dihydro-5-(trifluoro-methyl)-3-isoxazolyl]furo[2,3-c]pyridine-7-carboxamide] | ≤ 40% | ≤ 40% | ≤ 30% | ≤ 40% | – | – | ≤ 40% | – | –
O=C(NC1CS(=O)(=O)C1)c1cnc(C2=NOC(c3cc(Cl)cc(Cl)c3)(C(F)(F)F)C2)c2sccc12 (centres unmarked) [Compound 5] | ≤ 40% | ≤ 40% | ≤ 30% | ≤ 40% | – | – | ≤ 40% | – | –
CNC(=O)[C@@H](C)NC(=O)c1cnc(C2=NOC(c3cc(Cl)cc(Cl)c3)(C(F)(F)F)C2)c2sccc12 (stereo partly drawn) [Compound 7, 7-[5-(3,5-dichlorophenyl)-4,5-dihydro-5-(trifluoromethyl)-3-isoxazolyl]-N-[(1R)-1-methyl-2-(methylamino)-2-oxo-ethyl]thieno[2,3-c]pyridine-4-carboxamide] | ≤ 40% | ≤ 40% | ≤ 30% | ≤ 40% | – | – | ≤ 40% | – | ≤ 30%
O=C(NC1CS(=O)(=O)C1)c1cnc(C2=NOC(c3cc(Cl)cc(Cl)c3)(C(F)(F)F)C2)c2ccsc12 (centres unmarked) [Compound 29] | ≤ 40% | – | – | ≤ 40% | – | – | – | – | –
NC(=O)c1ncc(C2=NOC(c3cc(Cl)c(F)c(Cl)c3)(C(F)(F)F)C2)c2ccoc12 (centres unmarked) [Compound 8] | ≤ 40% | – | ≤ 30% | – | at least 80% | – | – | – | –
